Earlier results as cited in patent publication US7691969B2, “Isolated GRP94 ligand binding domain polypeptide and nucleic acid encoding same, crystalline form of same, and screening methods employing same” (Duke University, priority 2001, dated 2010).
For at least one compound, name, drawing or mass did not settle the structure.

System: epidermal growth factor receptor (EGF-R)
Settings: Supino-Rosin et al. (2000); cited from earlier work

COC1=C2C[C@@H](C)C[C@H](OC)[C@H](O)[C@@H](C)/C=C(\C)[C@H](OC(N)=O)[C@@H](OC)/C=C\C=C(/C)C(=O)NC(=CC1=O)C2=O [geldanamycin]
EGF-R trafficking and response to EGF: EGF-R is unable to traffic to the plasma membrane and the cell becomes refractory to stimulation by EGF
